The assay is described as follows: qHTS Assay for Lipid Storage Modulators in Drosophila S3 Cells.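 On cell number change: cells counted by Cell Tracker Red CMTPX staining in the red channel.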 The conditions noted are these: BODIPY lipid droplet fluorescence, 18-24 h; for cell number change: measured here: cell count max response, cells fed with added oleic acid. The method, boiled down: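 Drosophila S3 cells got compounds at several concentrations plus oleic acid (400 uM solution). Laser-scanning cytometry with 488 nm excitation read lipid droplets at 500-530 nm and cells at 575-640 nm. Percent activity was relative to 20 uM Triacsin C.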
A general note: In qHTS, concentration-response curves come from the screen itself.

The mark [1] stands for this setting: measured here: lipid fluorescence (Fed channel) AC50, cells fed with added oleic acid.
The mark [2] stands for this setting: measured here: cell number channel AC50, cells fed with added oleic acid.

The other results are listed elsewhere or left out. The main result of the screen is listed elsewhere. These columns were measured beside it and carry no call. Compounds called inactive in the main read-out are mostly missing here. Words in brackets tell the shape of the fitted curve; partial curves, single points and poor fits give uncertain potencies.

This passage reports cell number change and AC50 results from PubChem BioAssay AID2685 (National Center for Advancing Translational Sciences (NCATS), 2010).

Take `CCNC(=S)N1CCN(c2nc(-c3cccc(OC)c3)cs2)CC1`: the cell number change was -24%. In addition, the AC50 (in general, the concentration giving half of the maximal activity seen) under setting [1] is 18.4 µM [falling, single point].

For `CCOC(=O)CSc1cc(CS(C)(=O)=O)nc(-c2ccccn2)n1`, the cell number change amounted to 12.5%. Further, the concentration at half-maximal activity (AC50) under setting [1] was 29.1 µM [rising, single point]. Take `CC(=O)c1cccc(NC(=O)COc2ccccc2C(=O)c2cc(C#N)c(=O)n(C3CCCCC3)c2)c1`: the cell number change was determined as 10.9%. Further, the concentration at half-maximal activity (AC50) under setting [1] is 1.84 µM [rising, full curve, poor fit]. For the molecule `O=C(CCc1ccccc1)Nc1nnc(-c2ccc3c(c2)CCCC3)o1`, the cell number change was -30.1%. In addition, the AC50 under setting [2] was 18.4 µM [falling, single point]. Moreover, the AC50 under setting [1] is 20.6 µM [falling, single point]. Regarding `CN(Cc1ccccc1)S(=O)(=O)c1ccc(Cl)c(C(=O)N2CCC2)c1`, the cell number change came to 16.1%. Also, the AC50 under setting [1] is 13 µM [rising, partial curve, poor fit]. With `O=C1CC(c2cccs2)CC(O)=C1C=NCCN1CCNCC1` (stereo unspecified), the cell number change was -52.4%. Also, the AC50 under setting [2] is 0.206 µM [falling, full curve]. Moreover, the AC50 under setting [1] was 6.51 µM [falling, single point]. As to `CCOC(=O)C1CCCN(C(=O)c2ccc(CS(=O)(=O)Cc3ccccc3C)o2)C1` (stereo unspecified), the cell number change was found to be 211%. The AC50 under setting [2] was 23.1 µM [rising, partial curve]. Regarding `CC(C)[C@H](NC(=O)c1cccc(S(=O)(=O)N2CCOCC2)c1)C(=O)Nc1nccs1`, the concentration at half-maximal activity (AC50) under setting [1] is 0.82 µM [rising, full curve]. For `Cc1cccc2cc(C#N)c(NCCNC(=O)NC3CCCCC3)nc12`, the AC50 is 3.66 µM [rising, partial curve, poor fit] under setting [2] and 4.11 µM [rising, partial curve, poor fit] under setting [1]. With `CCC(=O)Nc1cc(-c2nnc(OC)c3ccccc23)ccc1N1CCOCC1`, the cell number change came to 3.56%. For the molecule `COc1ccc(CNC(=O)COC(=O)c2cccnc2Nc2cccc(C(F)(F)F)c2)cc1`, the cell number change came out at 1.68%. Further, under setting [1], the AC50 is 0.058 µM [rising, full curve]. As for `Cc1ccn(C(=O)c2ccc(NC(=O)CC(C)C)cc2)n1`, the cell number change was -30.5%. Also, the AC50 under setting [2] was 18.4 µM [falling, single point]. The AC50 under setting [1] was 29.1 µM [falling, single point]. `COC(=O)C(C(=O)OC)c1ccc(-n2cccc2)cc1`: the cell number change is -3.08%. On to `COC(=O)c1cc(OC)c(OC)cc1NC(=O)Cn1nnc(-c2ccccc2Cl)n1`, for which the concentration at half-maximal activity (AC50) runs as follows: under setting [2], 2.59 µM [rising, partial curve]; under setting [1], 1.84 µM [rising, partial curve].

Consider `NS(=O)(=O)c1ccc(N/N=C/c2cn(-c3ccccc3)nc2-c2ccccc2)c([N+](=O)[O-])c1`, for which the cell number change was -15.1%. Besides, under setting [1], the AC50 is 16.4 µM [falling, single point]. `CCCNC(=O)CSc1nnc(-c2ccccc2Br)n1-c1cccc(C(F)(F)F)c1`: the cell number change is -30.4%. The AC50 under setting [2] was 14.6 µM [falling, single point]. Besides, the AC50 under setting [1] is 18.4 µM [falling, single point]. On to `COc1cccc(/C=C/C(=O)OCC(=O)NC(=O)NC2CCCCC2)c1`, for which the cell number change turned out to be 28.1%. In the case of `O=C(COC(=O)Cc1n[nH]c(=O)c2ccccc12)Nc1cccc(C(F)(F)F)c1`, the AC50 under setting [2] was 0.00517 µM [falling, full curve, poor fit]. On to `CCCn1c(C(O)c2ccc3c(c2)OCO3)nc2ccccc21` (stereo unspecified), for which the cell number change is -9.99%. In addition, the concentration at half-maximal activity (AC50) under setting [1] is 6.51 µM [rising, partial curve]. Regarding `O=C(COC(=O)c1ccccc1Br)Nc1nnc(-c2ccccc2)o1`, the cell number change is -9.76%. Under setting [1], the concentration at half-maximal activity (AC50) is 0.411 µM [falling, single point]. For `CCn1c(SCC(=O)NC2(C#N)CCCCC2)nc2ccccc2c1=O`, the cell number change was 61.5%. For the same molecule, under setting [2], the concentration at half-maximal activity (AC50) is 4.61 µM [rising, partial curve].

For the molecule `Cc1cc(NC(=O)CCC(=O)N(C(C(=O)NC(C)(C)C)c2ccccc2Cl)C(C)(C)C)no1` (stereo unspecified), the cell number change was determined as 24.8%. Further, the AC50 under setting [1] was 6.51 µM [falling, single point]. Turning to `O=C(CSc1nc(-c2ccccc2)cc(=O)[nH]1)N1CCOCC1`, the cell number change is -8.61%. In addition, the AC50 under setting [1] is 0.82 µM [falling, partial curve, poor fit]. Consider `Nc1nnc(/C=C/c2cccc([N+](=O)[O-])c2)s1`, for which the AC50 under setting [1] was 6.51 µM [rising, single point]. As to `COC(=O)N/N=C/c1cn(CC(C)COc2ccccc2)c2ccccc12` (stereo unspecified), the cell number change was -28.6%. Besides, the AC50 under setting [1] was 0.00517 µM [falling, full curve, poor fit]. For `Cc1c(F)cccc1NS(=O)(=O)c1ccc2c(c1)n(C)c(=O)c(=O)n2C`, the cell number change was determined as 7.98%. With `CCC(C)Cn1c(O)cc2nn(-c3nc4ccccc4s3)c(=O)c-2c1C` (stereo unspecified), the AC50 under setting [1] is 29.1 µM [falling, single point]. For the molecule `CN(C(=O)CSc1nc(-c2ccc(C(C)(C)C)cc2)c(C#N)c(=O)[nH]1)C1CCCCC1`, the cell number change came to 7.03%. Also, the AC50 under setting [1] was 0.0164 µM [rising, full curve, poor fit]. In the case of `Cc1ccc(OCc2nnc(SCc3cc(=O)[nH]c4ccccc34)o2)cc1`, the cell number change came out at 0.489%. As to `CC(C(=O)Nc1ccon1)N1C(=O)c2ccccc2S1(=O)=O` (stereo unspecified), the cell number change is -0.0956%. Also, the concentration at half-maximal activity (AC50) under setting [1] is 0.291 µM [falling, full curve].

Take `CC(=O)Oc1ccc(C(=O)c2ccccc2)c(OC(C)=O)c1`: the cell number change is -10.4%. In addition, under setting [1], the concentration at half-maximal activity (AC50) is 0.00411 µM [falling, full curve, poor fit]. As to `Cc1ccc(-n2ncc3c(NCc4cccnc4)ncnc32)cc1C`, the cell number change is -29.6%. As for `CC(NC(=O)C(Cc1ccccc1)n1cccc1)c1ccccc1` (stereo unspecified), the cell number change came to 16.8%. The half-maximal activity concentration (AC50) under setting [1] was 0.731 µM [falling, full curve]. Turning to `CCC(CO)NCc1ccc(OC2CCCC2)cc1` (stereo unspecified), the cell number change was -3.48%. Further, the concentration at half-maximal activity (AC50) under setting [1] is 23.1 µM [falling, single point]. Turning to `CC(C)NC(=O)NC(=O)COc1c(F)c(F)cc(F)c1F`, the cell number change was -5.46%. For the same molecule, the AC50 under setting [1] is 0.092 µM [falling, full curve]. With `O=C1CC[C@@H](O)CCN1CC[C@H](Sc1ccc(Br)cc1)c1ccccc1`, the cell number change was -6.02%. The AC50 under setting [1] was 3.66 µM [rising, single point]. In the case of `COc1cc2[nH]c(=O)n(CCC(=O)NCCC(C)C)c(=O)c2cc1OC`, the cell number change is -31%. Also, the AC50 under setting [2] is 29.1 µM [falling, single point]. Also, under setting [1], the concentration at half-maximal activity (AC50) is 0.92 µM [falling, full curve, poor fit]. `Cc1nnc(SCCn2c(N3CCN(Cc4ccccc4)CC3)nc3c2c(=O)[nH]c(=O)n3C)s1`: the cell number change is -0.185%.

Turning to `CO/N=C/c1ccc(OC)c(Oc2nc(OC)cc(OC)n2)c1`, the cell number change was found to be 12.3%. The AC50 under setting [2] was 0.291 µM [rising, full curve, poor fit]. The concentration at half-maximal activity (AC50) under setting [1] is 0.146 µM [rising, full curve, poor fit].

Regarding `CCN1CCCC1CNC(=S)Nc1ccc(C(C)=O)cc1` (stereo unspecified), the cell number change is 3.01%. On to `COc1ccc(-n2c(C)c(C)c3c(NCCCN(C)C)ncnc32)cc1`, for which the AC50 under setting [1] is 0.651 µM [rising, full curve]. Take `O=C(CCn1cncn1)N1CCCC(N2CCN(c3ccc(F)cc3)CC2)C1` (stereo unspecified): the cell number change was determined as 16.5%.

Take `O=C(Nc1nc2ccccc2s1)C1CCN(C(=O)c2ccco2)CC1`: the cell number change is 8.4%.

In the case of `O=C(NCCc1ccccc1)c1ccc(NC2=NC3CS(=O)(=O)CC3S2)cc1` (stereo unspecified), the cell number change is -32.5%. The AC50 under setting [2] is 0.082 µM [falling, partial curve, poor fit]. For `Cc1ccc(NC(=O)COC(=O)CN2C(=O)c3ccccc3C2=O)cc1`, the cell number change is -0.376%. The AC50 under setting [1] is 29.1 µM [falling, single point].

With `O=C(N1CCCCCC1)N1CCN(S(=O)(=O)N2CCOCC2)CC1`, the cell number change is -24.9%. Under setting [2], the half-maximal activity concentration (AC50) was 1.84 µM [falling, full curve, poor fit]. Besides, the half-maximal activity concentration (AC50) under setting [1] was 0.0164 µM [falling, full curve, poor fit].

Consider `Cc1cccc(-n2c(=O)c(C#N)cc3c(=O)n4ccccc4nc32)c1`, for which the cell number change came to 22.1%. Besides, under setting [2], the concentration at half-maximal activity (AC50) was 0.461 µM [rising, full curve, poor fit].

With `O=C(NCc1ccc(Cl)cc1)C1CCN(S(=O)(=O)c2cccs2)CC1`, the cell number change was 16.1%.

Turning to `Fc1cccc(CSc2ccc3nnc(-c4cccnc4)n3n2)c1`, the cell number change was -63.3%. Further, under setting [2], the AC50 was 29.1 µM [falling, single point]. The concentration at half-maximal activity (AC50) under setting [1] is 29.1 µM [falling, partial curve]. With `O=C(c1cc2ncc(Br)cn2n1)N1CCOCC1`, the cell number change was -100%. In addition, the half-maximal activity concentration (AC50) under setting [2] was 1.03 µM [falling, full curve]. For the same molecule, the AC50 under setting [1] is 1.46 µM [falling, full curve].

With `Cc1ccc(C(=O)N(CN2CCCC2=O)c2ccc(F)cc2)cc1C`, under setting [1], the AC50 is 6.51 µM [rising, single point].

Regarding `CN(c1ccc(OCC(=O)NCc2cccnc2)cc1)S(=O)(=O)c1ccc(Cl)cc1`, under setting [1], the AC50 was 6.51 µM [rising, single point]. Turning to `Cc1ncc(CO)c(/C=N/Nc2cccc(Cl)n2)c1O`, the cell number change amounted to 15.5%. Besides, the half-maximal activity concentration (AC50) under setting [2] was 0.184 µM [rising, full curve, poor fit]. In addition, under setting [1], the AC50 is 3.66 µM [rising, single point]. Take `CCC(=NCc1ccc(Cl)c(Cl)c1)c1nc(-c2ccco2)oc1O`: the AC50 is, setting by setting: under setting [2], 1.3 µM [falling, partial curve]; under setting [1], 8.2 µM [rising, partial curve].

On to `O=C(NCCc1ccccc1F)C(=O)Nc1nccs1`, for which the cell number change was -28.5%. As to `Cc1cc(C)n(-c2ccc(C(=O)NCCCN3CCOCC3)cc2)n1`, the cell number change is -91.6%. Moreover, under setting [2], the concentration at half-maximal activity (AC50) was 16.4 µM [falling, partial curve]. Also, under setting [1], the AC50 is 14.6 µM [falling, partial curve].

Turning to `CCOc1ccccc1CNC(=O)CCn1ccc2cc(S(=O)(=O)N3CCCCC3)ccc21`, the cell number change is 20.6%. Also, the AC50 under setting [1] was 29.1 µM [falling, single point]. For `CN(C)S(=O)(=O)c1ccc(N2CCCC2)c(C(=O)NC(c2ccccc2)c2ccccc2)c1`, the cell number change was found to be 4.5%. Besides, the AC50 under setting [2] was 1.16 µM [rising, partial curve]. Also, under setting [1], the concentration at half-maximal activity (AC50) was 0.651 µM [rising, single point].

Take `Cc1ccc(N(CC(=O)N2CCc3ccccc32)S(=O)(=O)c2cccs2)cc1`: the cell number change was determined as 88.6%. Further, the concentration at half-maximal activity (AC50) under setting [2] is 8.2 µM [rising, partial curve].
